Assay results as given in the supplement of paper PMC10338343.
± gives the standard deviation. The list shows a part of the results. Many of these values have a large error.

System: EfPiwi piRISC loaded with L1MC piRNA (26 nt)
Assay: pre-steady-state target cleavage rate (min^-1); guide: L1MC piRNA 5'p-UAACUAAAUACUAUGCAAGCUGUAGG; MIWI and MILI are mouse PIWI proteins and EfPiwi is from a freshwater sponge; tags in brackets are library labels; higher = faster piRNA-guided slicing of the target
Settings: auxiliary factor: 500 nM Ephydatia muelleri Gtsf1
Summary of the method: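 Reactions were run for 0–8 or 0–960 min at 33 °C in HEPES–potassium acetate buffer, combining 1 nM active affinity-purified piRISC with one synthetic guide, […] transcribed, DNA-blocked target RNA library and, in some cases, 500 nM GTSF1 partner protein. Sequencing of uncleaved targets followed, with normalisation to depth and to weakly complementary targets. Three trials were pooled, k3 was capped at 0.0001 min^-1, and the pre-steady-state cleavage rate was taken from a burst-and-steady-state fit.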

Row | Sequence | pre-steady-state target cleavage rate
1 | UCCUGGAUGUGGCUUGCAUAGUAUUUAGUUA | 0.0125 ± 0.0049
2 | UCCUGGAUCAGCUUGCAUAGUUUUUAGAAA | 0.00205 ± 0.0024
3 | UCCUGCUACAGCUUGCAAAGAAUUUAGUUA | 0.00161 ± 0.0024
4 | UCCUGCUACAGCUUGCAUAGAAUUUACUUA | 0.00189 ± 0.0031
5 | UCCUGGAUCAGCUUGGAUAGUAUUUAGAUA | 0.00149 ± 0.0029
6 | UCCUGGAUGUCCUUGAAUAGUAUUUAGUUA | 0.000896 ± 0.0038
7 | UCCUCCUACAGCUUGCAUAGUGUUUAGUUA | 0.0149 ± 0.0041
8 | UCCUCCUUGAGCUUGCAUAGUAUUUAGUUA | 0.0223 ± 0.0062
9 | UCCUGGAUCAGCUUGGAUAGUAUUAAGUUA | 0.00195 ± 0.0026
10 | UCCUGGAUGAGCUUGUAUAGUAUUUAGUUA | 0.0538 ± 0.014
11 | UCCUGGAACAGCUUGCUUAGUAUUUAGAAA | 0.00132 ± 0.0043
12 | UCCUCCUACAGCCUUGCAUAGUAUUUAGUUA | 0.0222 ± 0.0079
13 | UCCUCCUACAGCUUGCAUACUAUAUAGUUA | 0.00278 ± 0.0029
14 | UCCUGGAUCAGCUUGCAUAGAAUUUAGAAA | 0.00102 ± 0.0052
15 | UCCUGGAACUGCUUGCAUAGUAUUUAGAAA | 0.00485 ± 0.0026
16 | UCCUCCUACAGCUUGCAAAGUAUUAAGUUA | 0.00696 ± 0.0033
17 | UCCUGCUACAGCUUGCAUAGUUAAUAGUUA | 0.00347 ± 0.0032
18 | UCCUGGAACAGGUUGCAUAGUAUAUAGUUA | 0.0101 ± 0.0045
19 | UCCUCCUACAGGUUGGAUAGUAUUUAGUUA | 0.0118 ± 0.0028
20 | UCCUGGAUCAGGUUGGAUAGUAUUUAGUUA | 0.00425 ± 0.003
21 | UCCUGCAACAGCUUGCAUAGUAUUAAGUUA | 0.00881 ± 0.0022
22 | UCCUCCUACAGCUUGGAUAGUUUUUAGUUA | 0.0265 ± 0.007
23 | UCCUGGAUCAGGCUUGCAUAGUAUUUAGUUA | 0.0132 ± 0.0034
24 | UCCUCGCUACAGCUUGCAUAGUAUUUAGUUA | 0.0505 ± 0.017

Shown tab-delimited: entries from further up
Row	Sequence	pre-steady-state target cleavage rate
20	UCCUGGAUCAGGUUGGAUAGUAUUUAGUUA	0.00425 ± 0.003
21	UCCUGCAACAGCUUGCAUAGUAUUAAGUUA	0.00881 ± 0.0022
